Among the data in publication PMC7190567 are binding values, retold here.

Chains of the proteins cited; added tags and fusions are not shown.
UniProt Q6X632: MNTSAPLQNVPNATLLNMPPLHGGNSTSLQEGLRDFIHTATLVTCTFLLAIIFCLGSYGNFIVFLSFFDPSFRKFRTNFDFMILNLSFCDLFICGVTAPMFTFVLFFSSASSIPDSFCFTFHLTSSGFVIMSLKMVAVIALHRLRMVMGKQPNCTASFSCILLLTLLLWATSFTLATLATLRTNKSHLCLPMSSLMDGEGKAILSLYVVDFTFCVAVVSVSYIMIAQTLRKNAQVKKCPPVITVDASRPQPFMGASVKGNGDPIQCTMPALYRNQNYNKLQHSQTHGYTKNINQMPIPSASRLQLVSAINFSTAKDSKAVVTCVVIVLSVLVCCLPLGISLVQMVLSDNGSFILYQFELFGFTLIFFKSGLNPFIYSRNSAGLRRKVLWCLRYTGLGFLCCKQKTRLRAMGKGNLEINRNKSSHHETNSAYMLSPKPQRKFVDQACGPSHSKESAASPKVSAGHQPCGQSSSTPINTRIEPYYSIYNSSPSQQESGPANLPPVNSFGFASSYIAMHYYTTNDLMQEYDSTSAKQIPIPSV
UniProt Q99LI8: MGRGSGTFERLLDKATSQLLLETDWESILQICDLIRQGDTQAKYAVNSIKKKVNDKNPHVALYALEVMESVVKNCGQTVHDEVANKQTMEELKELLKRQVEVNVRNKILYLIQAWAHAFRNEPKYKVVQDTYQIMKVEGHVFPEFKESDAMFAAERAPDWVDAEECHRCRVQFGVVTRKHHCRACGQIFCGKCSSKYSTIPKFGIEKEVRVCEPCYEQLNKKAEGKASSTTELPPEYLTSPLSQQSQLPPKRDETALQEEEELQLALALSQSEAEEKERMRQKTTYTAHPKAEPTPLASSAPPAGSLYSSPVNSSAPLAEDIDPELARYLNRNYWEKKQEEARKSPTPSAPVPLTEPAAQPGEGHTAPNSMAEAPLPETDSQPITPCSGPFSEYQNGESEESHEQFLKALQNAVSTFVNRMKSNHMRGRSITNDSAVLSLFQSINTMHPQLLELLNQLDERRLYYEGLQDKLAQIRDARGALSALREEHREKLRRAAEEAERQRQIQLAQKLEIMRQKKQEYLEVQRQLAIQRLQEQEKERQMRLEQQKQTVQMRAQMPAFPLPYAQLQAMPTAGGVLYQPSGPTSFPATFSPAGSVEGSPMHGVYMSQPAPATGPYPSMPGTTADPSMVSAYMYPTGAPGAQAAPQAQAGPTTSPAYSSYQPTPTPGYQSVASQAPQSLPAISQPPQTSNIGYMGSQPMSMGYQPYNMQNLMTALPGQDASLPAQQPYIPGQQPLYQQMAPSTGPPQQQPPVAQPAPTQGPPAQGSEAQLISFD
UniProt Q8C115: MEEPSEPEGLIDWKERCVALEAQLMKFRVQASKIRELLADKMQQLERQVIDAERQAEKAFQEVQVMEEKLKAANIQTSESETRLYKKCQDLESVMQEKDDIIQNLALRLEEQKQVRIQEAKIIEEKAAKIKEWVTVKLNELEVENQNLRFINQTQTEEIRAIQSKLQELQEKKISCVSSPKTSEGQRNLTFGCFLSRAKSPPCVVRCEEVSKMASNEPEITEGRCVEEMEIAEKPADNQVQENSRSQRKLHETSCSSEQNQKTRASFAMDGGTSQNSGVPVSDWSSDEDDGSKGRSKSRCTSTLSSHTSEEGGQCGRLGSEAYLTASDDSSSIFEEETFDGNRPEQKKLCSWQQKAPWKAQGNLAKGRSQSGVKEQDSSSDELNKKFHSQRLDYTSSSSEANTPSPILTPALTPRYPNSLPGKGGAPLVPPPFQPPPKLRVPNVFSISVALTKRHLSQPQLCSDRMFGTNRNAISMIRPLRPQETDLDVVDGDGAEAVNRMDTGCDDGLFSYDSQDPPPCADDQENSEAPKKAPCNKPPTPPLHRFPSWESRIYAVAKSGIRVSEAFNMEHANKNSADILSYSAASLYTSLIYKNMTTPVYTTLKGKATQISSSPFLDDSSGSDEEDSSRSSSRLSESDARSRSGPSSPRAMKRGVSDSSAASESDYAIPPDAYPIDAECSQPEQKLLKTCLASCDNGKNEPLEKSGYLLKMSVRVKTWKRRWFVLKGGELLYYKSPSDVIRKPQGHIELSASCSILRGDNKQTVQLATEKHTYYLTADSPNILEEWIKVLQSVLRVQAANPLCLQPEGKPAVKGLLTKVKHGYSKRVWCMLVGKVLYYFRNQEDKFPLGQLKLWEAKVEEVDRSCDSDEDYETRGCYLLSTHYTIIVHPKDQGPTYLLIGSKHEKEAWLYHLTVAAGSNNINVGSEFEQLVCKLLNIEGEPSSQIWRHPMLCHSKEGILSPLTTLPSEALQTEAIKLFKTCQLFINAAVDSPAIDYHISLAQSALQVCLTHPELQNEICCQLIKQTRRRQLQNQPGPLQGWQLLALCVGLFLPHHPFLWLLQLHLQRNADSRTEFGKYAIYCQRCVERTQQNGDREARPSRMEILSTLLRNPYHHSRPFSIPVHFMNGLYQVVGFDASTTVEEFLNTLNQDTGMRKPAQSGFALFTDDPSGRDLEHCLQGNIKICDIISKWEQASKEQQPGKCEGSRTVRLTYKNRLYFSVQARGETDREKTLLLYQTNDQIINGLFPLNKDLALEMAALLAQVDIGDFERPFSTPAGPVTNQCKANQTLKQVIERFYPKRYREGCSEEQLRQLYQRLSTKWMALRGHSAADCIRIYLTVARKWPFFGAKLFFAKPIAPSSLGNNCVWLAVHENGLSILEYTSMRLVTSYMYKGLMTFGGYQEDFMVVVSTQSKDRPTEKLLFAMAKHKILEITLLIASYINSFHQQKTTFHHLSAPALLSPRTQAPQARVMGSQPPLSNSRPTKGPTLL
UniProt P97445: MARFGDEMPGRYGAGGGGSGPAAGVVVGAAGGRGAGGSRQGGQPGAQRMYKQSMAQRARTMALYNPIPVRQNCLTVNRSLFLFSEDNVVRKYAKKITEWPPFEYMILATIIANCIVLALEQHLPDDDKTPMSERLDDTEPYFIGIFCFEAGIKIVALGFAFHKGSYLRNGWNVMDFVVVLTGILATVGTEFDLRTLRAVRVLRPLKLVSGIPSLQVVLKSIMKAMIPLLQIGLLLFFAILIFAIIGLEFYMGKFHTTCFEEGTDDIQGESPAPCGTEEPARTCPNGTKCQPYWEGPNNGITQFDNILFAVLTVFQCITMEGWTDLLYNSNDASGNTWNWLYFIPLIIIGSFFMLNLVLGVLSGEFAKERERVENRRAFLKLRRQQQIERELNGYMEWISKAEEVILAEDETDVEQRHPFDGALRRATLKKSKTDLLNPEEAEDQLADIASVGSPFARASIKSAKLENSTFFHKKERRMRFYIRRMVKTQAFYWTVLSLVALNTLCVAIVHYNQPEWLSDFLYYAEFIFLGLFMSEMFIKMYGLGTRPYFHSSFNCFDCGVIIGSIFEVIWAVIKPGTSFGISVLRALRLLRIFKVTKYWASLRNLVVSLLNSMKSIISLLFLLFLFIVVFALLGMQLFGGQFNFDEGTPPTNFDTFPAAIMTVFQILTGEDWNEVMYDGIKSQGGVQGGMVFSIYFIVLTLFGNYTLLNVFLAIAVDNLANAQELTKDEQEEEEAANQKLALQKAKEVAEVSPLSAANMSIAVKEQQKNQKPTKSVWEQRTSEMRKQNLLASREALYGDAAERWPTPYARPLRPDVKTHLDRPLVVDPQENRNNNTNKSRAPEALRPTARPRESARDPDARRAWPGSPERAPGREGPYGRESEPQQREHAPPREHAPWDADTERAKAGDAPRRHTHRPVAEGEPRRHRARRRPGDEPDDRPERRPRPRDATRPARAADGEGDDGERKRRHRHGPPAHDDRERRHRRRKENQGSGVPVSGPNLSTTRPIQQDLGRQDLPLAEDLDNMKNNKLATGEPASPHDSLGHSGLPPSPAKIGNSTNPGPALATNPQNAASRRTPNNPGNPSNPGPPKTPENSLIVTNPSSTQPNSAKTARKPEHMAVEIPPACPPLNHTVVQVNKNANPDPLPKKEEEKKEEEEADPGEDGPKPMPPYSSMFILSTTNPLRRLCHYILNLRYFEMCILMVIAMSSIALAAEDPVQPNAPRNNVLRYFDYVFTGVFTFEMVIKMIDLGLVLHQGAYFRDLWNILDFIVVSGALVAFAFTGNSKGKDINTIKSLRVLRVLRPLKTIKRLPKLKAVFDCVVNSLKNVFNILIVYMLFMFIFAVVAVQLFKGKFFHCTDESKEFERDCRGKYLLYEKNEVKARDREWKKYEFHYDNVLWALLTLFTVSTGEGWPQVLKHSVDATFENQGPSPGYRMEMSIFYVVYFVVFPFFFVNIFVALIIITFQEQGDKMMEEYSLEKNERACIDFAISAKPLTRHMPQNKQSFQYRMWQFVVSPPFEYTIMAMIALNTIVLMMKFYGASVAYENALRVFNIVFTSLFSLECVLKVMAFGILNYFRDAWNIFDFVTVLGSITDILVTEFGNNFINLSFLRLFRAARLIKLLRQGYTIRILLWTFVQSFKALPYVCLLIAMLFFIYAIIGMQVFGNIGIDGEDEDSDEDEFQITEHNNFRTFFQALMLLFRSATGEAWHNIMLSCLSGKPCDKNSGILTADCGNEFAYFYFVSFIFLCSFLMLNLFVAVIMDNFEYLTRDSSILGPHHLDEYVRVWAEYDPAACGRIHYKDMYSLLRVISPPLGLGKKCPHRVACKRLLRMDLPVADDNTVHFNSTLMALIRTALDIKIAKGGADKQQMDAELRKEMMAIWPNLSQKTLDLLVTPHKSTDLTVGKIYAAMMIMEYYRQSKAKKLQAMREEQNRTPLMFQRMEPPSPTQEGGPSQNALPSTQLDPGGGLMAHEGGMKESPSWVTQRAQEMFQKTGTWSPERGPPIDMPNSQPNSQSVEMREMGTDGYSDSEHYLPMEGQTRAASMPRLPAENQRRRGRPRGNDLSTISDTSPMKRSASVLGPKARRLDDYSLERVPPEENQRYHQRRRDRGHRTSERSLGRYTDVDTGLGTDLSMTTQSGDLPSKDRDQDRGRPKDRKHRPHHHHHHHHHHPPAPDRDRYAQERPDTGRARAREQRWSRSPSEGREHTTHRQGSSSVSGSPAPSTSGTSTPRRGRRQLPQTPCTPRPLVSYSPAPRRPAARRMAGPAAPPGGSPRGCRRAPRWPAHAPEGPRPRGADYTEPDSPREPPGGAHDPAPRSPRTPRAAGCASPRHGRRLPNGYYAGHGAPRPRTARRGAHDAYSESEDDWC
UniProt Q8BYK8: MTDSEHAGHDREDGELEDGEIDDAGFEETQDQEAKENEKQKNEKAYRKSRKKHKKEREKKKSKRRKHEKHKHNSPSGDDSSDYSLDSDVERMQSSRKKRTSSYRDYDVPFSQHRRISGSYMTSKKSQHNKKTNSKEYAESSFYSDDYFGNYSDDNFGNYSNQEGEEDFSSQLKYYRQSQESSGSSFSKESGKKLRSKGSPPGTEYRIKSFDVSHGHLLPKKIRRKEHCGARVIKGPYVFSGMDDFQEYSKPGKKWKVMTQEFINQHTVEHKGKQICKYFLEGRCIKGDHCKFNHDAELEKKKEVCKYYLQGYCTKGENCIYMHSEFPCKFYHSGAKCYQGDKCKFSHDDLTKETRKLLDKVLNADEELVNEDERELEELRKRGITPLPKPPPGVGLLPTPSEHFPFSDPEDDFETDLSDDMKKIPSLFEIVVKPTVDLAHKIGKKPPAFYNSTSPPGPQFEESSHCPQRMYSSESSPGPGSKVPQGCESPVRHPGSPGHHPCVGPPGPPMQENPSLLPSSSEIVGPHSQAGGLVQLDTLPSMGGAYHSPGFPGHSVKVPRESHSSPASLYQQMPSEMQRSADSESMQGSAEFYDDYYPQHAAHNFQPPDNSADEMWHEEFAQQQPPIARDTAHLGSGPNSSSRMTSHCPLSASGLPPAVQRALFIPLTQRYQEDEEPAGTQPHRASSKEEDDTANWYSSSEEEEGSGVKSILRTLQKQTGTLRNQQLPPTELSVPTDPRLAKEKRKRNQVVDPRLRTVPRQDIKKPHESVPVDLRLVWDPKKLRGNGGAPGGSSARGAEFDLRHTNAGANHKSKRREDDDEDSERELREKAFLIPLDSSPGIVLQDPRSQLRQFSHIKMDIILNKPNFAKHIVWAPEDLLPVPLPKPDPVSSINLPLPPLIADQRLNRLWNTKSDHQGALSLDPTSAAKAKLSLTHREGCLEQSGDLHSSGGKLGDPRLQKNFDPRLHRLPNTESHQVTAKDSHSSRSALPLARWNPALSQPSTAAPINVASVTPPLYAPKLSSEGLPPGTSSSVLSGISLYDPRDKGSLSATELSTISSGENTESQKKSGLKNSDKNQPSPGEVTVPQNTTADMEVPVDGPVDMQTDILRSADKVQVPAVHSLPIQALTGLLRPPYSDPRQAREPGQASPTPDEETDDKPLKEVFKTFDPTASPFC

The target of this experiment is T1, Caveolin-1 (wild type) (dog) (UniProt P33724).
T1 sequence: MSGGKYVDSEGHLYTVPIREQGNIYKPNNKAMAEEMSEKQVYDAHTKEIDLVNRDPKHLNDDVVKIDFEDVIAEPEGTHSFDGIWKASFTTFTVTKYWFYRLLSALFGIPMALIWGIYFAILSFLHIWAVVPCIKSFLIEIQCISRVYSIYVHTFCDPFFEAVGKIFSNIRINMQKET
Description: affinity purification with mass spectrometry; CAV1 immunoprecipitated with polyclonal anti-CAV1 on Dynabeads from B16F10(CAV1) cells (no E-cadherin); trypsin digest, nano-ESI-MS/MS on an LTQ ion trap, Mascot; only proteins unique to this sample listed.

Results are given in words; binding and its absence hold for the method and conditions named. In cells and extracts the contact can be indirect. These calls come from enrichment with a bait or labelling near it, and not all partners need be listed.

As for “E3 ubiquitin -protein ligase MYCBP2 (from UniProt Q7TPH6 1-4749)”, the binding entry is on record as “binds”. For “G-protein coupled receptor 75 (from UniProt Q6X632 1-540)”, the binding entry is reported as “binds”. As for “Hepatocyte growth factor-regulated tyrosine kinase substrate (from UniProt Q99LI8 1-775)”, the binding result is given as “binds”. As for “Histone acetyltransferase KAT6A (from UniProt Q8BZ21 1-2003)”, the entry is “binds”; as for “Low-density lipoprotein receptor-related protein 2 (from UniProt A2ARV4 26-4660)”, “binds”.

In the case of “Nuclear envelope spectrin repeat protein 2 (from UniProt Q6ZWQ0 1-6874)”, the binding result was “binds”. The same measure for “Oog4 protein (mouse (endogenous in B16F10))”: “binds”; for “Pleckstrin homology domain-containing family H member 2 (from UniProt Q8C115 1-1491)”: “binds”; for “Protein 4732456N10Rik (from UniProt E9Q1Z0)”: “binds”.

As to “Protein Atp2b1 (from UniProt G5E829 1-1220)”, the binding result is “binds”.

As for “Voltage-dependent P/Q-type calcium channel subunit alpha-1 (from UniProt P97445 1-2368)”, the binding result was “binds”. The same measure for “Zinc finger CCCH domain-containing protein 6 (from UniProt Q8BYK8 1-1177)”: “binds”.

B1: Syntaxin-5 (protein, UniProt Q8K1E0 1-355)
chain: MIPRKRYGSKNTDQGVYLGLSKTQVLSPATAISSSSDSTPLPTPVALVPSPPDTMSCRDRTQEFQSACKSLQSRQNGIQTSKPALHAARQCSEFTLMARRIGKDLSNTFAKLEKLTILAKRKSLFDDKAVEIEELTYIIKQDINSLNKQIAQLQDFVRAKGSQSGRHLQTHSNTIVVSLQSKLASMSNDFKSVLEVRTENLKQQRNRREQFSRAPVSALPLAPNNLGGGPIILGAESRASRDVAIDMMDPRTSQQLQLIDEQDSYIQSRADTMQNIESTIVELGSIFQQLAHMVKEQEETIQRIDENVLGAQLDVEAAHSEILKYFQSVTSNRWLMVKIFLILIVFFIIFVVFLA
As to B1, the binding entry was “binds”.

B2: Sorting nexin 14 (protein, UniProt Q8BHY8 1-964)
chain: MWLRRRGLGVPSASASEGGTSSPAWTEMGSWVRTICGRLKQRLRLDVGREICRQYPLFCFLLLCLSVASLLLNRYLHVLMIFWSFVAGVVTFYCSLGPDSLLPNIFFTIKYKPKQLGLQELFPQGHSCAVCGKVKCKRHRPSLLLENYQPWLDLKVSSKVDASLSEVLELVLENFVYPWYRDVTDDESFVDELRITLRFFASVLVRRIHKVDIPSIITKKLLKAAMKHIEVIVKARQKVKNTEYLQQAALEEYGPELHVALRSRRDELQYLRKLTELLFPYILPPKATDCRSLTLLIREILSGSVLLPSLDFLADPDTVNHLLIIFIDDSPPEKATEPASPLVPFLQKFAEPRNKKPSVLKLELKQIREQQDLLFRFMNFLKQEGAVHVLQFCLTVEEFNDRILRPELSNDEMLSLHEELQKIYKTYCLDESIDKIRFDPFIVEEIQRIAEGPYIDVVKLQTMRCLFEAYEHVLSLLENVFTPMFCHSDEYFRQLLRGAESPTRNSKFNRSTQKRGESFGISRIGSKIKGVFKSTTMEGAVLPNYGVAEGEDDFIEEGIVVMEDDSPVEAVSTPNTPRNLAAWKISIPYVDFFEDPSSERKEKKERIPVFCIDVERNDRRAVGHEPEHWSVYRRYLEFYVLESKLTEFHGTFPDAQLPSKRIIGPKNYEFLKSKREEFQEYLQKLVQHPELSNSQLLADFLSPNGGETQFLDKILPDVNLGKIIKSVPGKLMKEKGQHLEPFIMSFINSCESPKPKPSRPELTILSPTSENNKKLFNDLFKNNANRAENTERKQNQNYFMEVMTVDGVYDYLMYVGRVVFQVPDWLHHLLMGTRILFKNTLEMYTDYYLQCKLEQLFQEHRLVSLITLLRDAIFCENTEPRSLQDKQKGAKQTFEEMMNYIPDLIVKCIGEETKYESIRLLFDGLQQPVLNKQLTYVLLDIVIQELFPELNKVQKEATSMTSWM
Turning to B2, the binding entry is recorded as “binds”.

B3: RNA exonuclease 1 homolog (protein, UniProt Q7TT28 1-1213)
chain: MLRSTGFFRSIDCPYWAGAPGGPCRRPYCHFRHRGARGPGAPGSGGAASPASGLGYDPYNPELPQPPVQRENGALGQGDGMLELELVNQAIEAVRGEVELEQRRYQELLETARGHSAGPSALAPCSPATSIDDDDTFSLALTYTPGGLLSPDAAYQPTPLAVPAEPGHKYSLAPSDRSQGRAAGGAGALEYVPKAVGQPRRCGRPVSGGKYVVDSSKPSTDLEYDPLSNYSARHLGRASARDERATKRPRGSRGAEPYTPALKKPCDPFGGCEARFSDSEDDVTSPPKADVSSPKAGADPESKAPGKPVSKEGREHEDGGLRGTKEMAVQYDVEDLGQPPKAPDTVSVVKPGSPARASQDARVPKEGKAKKKKSGTSASLSHKDKVRKKDKKKEKDPARPRGKEKVCTDKKKLPASNPRGKAQGPEGTKKKPSSATTVASSGKGGSGRPSSTGPQDSGPGPHAPLAWKAGSAKKMSSGKLVERKARSLDEGAPQDTPKLKKRALSHAELFGDESEEEDSSLGAGAPRVWPPTLPSLSSDSESDSDSSLGLDETKVPKRLKAAPPASPVPPSPLSSSSSSSGASQCAEEDVDYSALEKEVDFDVDPMEECLRIFNESTSVKTEDKGRLARQPPKEKAEEKTHAGLTTLFPGQKRRVSHLCKPGKESEAPKRTPVAPPARPPTAQEVCYRRAQLAQRDSASWLQAAPRPTERLSSVHISAPGEKRRIAHVPNPRLAAAPTGAKRALSASSSQASHGPEPGSQPLKTRTLSGMASKTTTTVTPKRIAHSPSLQSLKKPVIPKEFGGKVPTVVRQRYLNLFIEECLKFCSSNQEAIEKALNEEKVAYDRSPSKNIYLNVAVNTLKKLRGLVPNTVPNLSKASGRRVVSHEVVLGGKLAAKTSFSLSRPSSPRVEELKGTALYSRLREYLLTQEQLKENGYPFPHPERPGGAIIFTAEEKKPKDPSCRICCRCGTEYLVSSSGRCVRSEECYYHWGRLRRNRVAGGWETQYMCCSAAVGSVGCQVAKQHVQDGRKENLEGFVRTFQKELPEDAHAGVFALDCEMSYTTYGLELTRVTVVDTDMQVVYDTFVKPDNEVVDYNTRFSGVTEADLVDTSITLRDVQAVLLSMFSADTILIGHSLESDLLALKVIHGTVVDTSVLFPHRLGLPYKRSLRNLMADYLRQIIQDNVDGHSSSEDASACMHLVIWKIREDAKTKR
As to B3, the binding entry is “binds”.

B4: Spermatogenesis-associated protein 17 (protein, UniProt Q9D552 1-379)
chain: METNSNNFGELQELKDMATLAKLLARAPFLESQYYFRNRAVDSFRKFENDAAVMIQSWFRGCQVRAYMRHLNRVVTIIQKWWRSYLGRKFYQLVVEAAYYTMKMNLYNEMAVRIQRRWRGFRIRKYCFNYYYLKEYLRAVSETNDAIREALEEFAEMKEREERKVLLEREEKQKDYQARKMHYLLSTKQISGIYNSPFREHPDPWELRLQKAKPLGHQKYTAEKGKTSQSPSNWLACTSVHSFPQSESLPPISRKRCQGPFRDINEVLEQRYKPLEPTLRVAEPINHLRLAREAFKQEERMRNVQDKMFLPFSSYHKKEKYIPMIHSSSAYNSDSYGQKHFRSQDSKKWISDKDFQTVLPSFQLFSKYGKLYSKAGEIV
On to B4, for which the binding entry is “binds”.

B5: Amyloid beta A4 precursor protein-binding family B member 2 (protein, UniProt Q9DBR4 1-760)
chain: MSEVLPADSGVGTLAVFMASSGSTDIANRNSPATPPNTLNLRSSHNELLNAEIKHSDAKNSTPPKCRKKYALTNIQAAMGLSDPAVQPLLGNGSANIKLVKNGENQLRKAAEQGQQDPNKNLSPAAVINLTSEKLEVKDPHPQESSGCEILPSQPRRTKSFLNYYADLETSARELGQNLGPCQGVGEEKAQPGPGQAPVVIGNGDLLPQKPNKPQSSPEDGQVATVSSSPETKKDHPKTGAKTDCALHRIQNLAPSDEESSWTTLSQDSASPSSPDETDIWSDHSFQTDPDLPPGWKRVNDIAGTYYWHIPTGTTQWERPVSIPADLHGSRKGSLSSVTPSPTPENEKQPWSDFAVLNGGKINSDIWKDLHAATVNPDPSLKEFEGATLRYASLKLRNAPHGDDDDSCSINSDPEAKCFAVRSLGWVEMAEEDLAPGKSSVAVNNCIRQLSYCKNDIRDTVGIWGEGKDMYLSLENDMLSLVDPMDRSVLHSQPIVNIRVWGVGRDNGRERDFAYVARDKDTRILKCHVFRCDTPAKAIATSLHEICSKIMAERKNAKALACSSLQERTNMSLDVPLQVDFPTPKTELVQKFRVQYLGMLPVDRPVGMDTLNSAIENLMTSSSKEDWPSVNMNVADATVTVISEKNEEEVLVECRVRFLSFMGVGKDVHTFAFIMDTGNQRFECHVFWCEPNAANVSEAVQAACMLRYQKCLVARPPSQKVRPPPPPADSVTRRVTTNVKRGVLSLIDTLKQKRPVTETP
In the case of B5, the binding result is “binds”.
